# Data from US11447504B2, “Macrocyclic chlorine substituted indole derivatives” (Bayer Aktiengesellschaft, priority 2017, dated 2022).
# Test system: HMC-1-8
# Assay: Antiproliferation assay 7, HMC-1-8
# Assay type: cell-based
# Conditions: read-out: Antiproli HMC-1-8 IC50 median; HMC-1-8 cells, 72 hours, CellTiter-Glo
smiles,measurement,value
CCc1c2c(nn1C)CN(CC(F)F)CCCCn1c(C(=O)O)c(CCCOc3cccc4cc(F)ccc34)c3ccc(Cl)c-2c31,IC50,5.43 µM and 13 µM

# Not every entry of the source has a single result; some have several. The list is limited to them. The source may hold further records. The records of an entry differ, and nothing given here explains why; dose, time, organism, isomer or construct need not be as stated for each record.
